Laboratory results: publication PMC2225504

The chains behind the UniProt entries cited, without tags or fusion partners.
UniProt Q9RWQ1, entry or part of it: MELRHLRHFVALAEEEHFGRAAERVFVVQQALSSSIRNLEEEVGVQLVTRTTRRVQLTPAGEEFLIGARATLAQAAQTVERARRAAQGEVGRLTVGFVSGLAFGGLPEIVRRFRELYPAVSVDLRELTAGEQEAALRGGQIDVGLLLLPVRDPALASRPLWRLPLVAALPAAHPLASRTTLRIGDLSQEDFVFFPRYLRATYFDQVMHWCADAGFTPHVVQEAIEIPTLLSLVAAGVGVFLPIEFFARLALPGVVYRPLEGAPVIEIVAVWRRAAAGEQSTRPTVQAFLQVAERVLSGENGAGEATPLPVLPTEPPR

Molecular target: DrOxyR (oxidized or DTT-reduced) (Deinococcus radiodurans) (UniProt Q9RWQ1)
Test: EMSA
Conditions: 10 mM Tris-Cl pH 8.0, 50 mM NaCl, 1 mM EDTA, 5% glycerol, 50 ug/mL BSA, 5 ug/mL calf thymus DNA, 0.05 pmol DNA, recombinant protein, residues 1-317, protein details: His-tag (pET28a, NdeI/BamHI), label: FITC, probe letters rebuilt from the primers and the genome, part of a longer molecule

Sequence: AGGCTGGGAGAACGGGAATCCATGGCCTTTATTTTAGGCGCGACTAAAATAGTTGTCCAACGGCGTGGGCTTGAGTTCGTCTTAAAGGCCGACTTTTTTGTGAAAAATGCCTCTTTCCCAAGATCCAGTCAGATTCCGTCACGCTGGGTCATCTGGTTTTCAGGGTGCTGTCACATATTTGCTAGAGGCTC (double strand) [dr1709 (mntH) upstream region]
- binding result (oxidized): binds
- binding result (reduced, 200 mM DTT): binds

Sequence: GCGCAGGATAGCGGATGCCCCGGCGCAGCGCGGTGTCCTGCTGCTCTGCCCCCCCCTGCGCCTTCTTCTTGAACCCACTGCACAGAACCCACTGGACAGAACCCACTGCACAGCCGCCGCGAGGGCCTGAGGGCCATGGAGACCGAGGGCCCTGGACATTGAGAATGATTCTCAATATGGTGCAGGGAGCTTCGGGCCTCTTGCCGCGCAGCAGAGCCAGCGAGGCGAAGGAGAGTGTATGAGCGACGAAAACAACAAGGGCGTCGG (double strand) [dr1998 (katE) upstream region]
- binding result (oxidized): binds
- binding result (reduced, 200 mM DTT): binds

Sequence: CTGGGCGCAGCTTGAAGTTAGCGACCACCGACTGCTGTTTGCCCAAAGGTAAAGAAAATGGCTATGGGCGCCCCTCGCGGGCCCGGCGTAGGGTGCGTTCATGACGAAGAAAAGCACCAAGAGCGAGGCAGCCAGCAAGACCAAAAAGAGCGGCGTG (double strand) [dr2263 (dps) upstream region]
- binding result (oxidized): binds
- binding result (reduced, 200 mM DTT): binds

Sequence: GGGCGAGGGTCAGAAAAAGGGGCTGAAACTTCATGGCGCTGATATTGGAGTAATCCGACCAATTAAGTCAAGTTAAAAGTGGCCCTCGTTGTCCATGCATGACAACGGCGAATTTCTCAGTTTCAGTGGGTTTTCGCTCGCTCCCCTGCTTTTGAGTCGCTTTGAAAGGTCAAGCCGTCGTCTCATGACCGCGTGGCGCTTGCCGCGTCGATATGCTGTCGGCAGGATTTCTGACTTTATAGACACAGTGACCATCGGCACTGATACCCGGTCTGAACTTTTGTAATTGTCGCGGCTCCTGAACCCTCACCAGCTCCGCCGACCGCAGACTGAAGGGAAAGCCAGCAGC (double strand) [drB0125 upstream region]
- binding result (oxidized): binds
- binding result (reduced, 200 mM DTT): binds

For at least one entry, the source does not settle the construct or the ends of the probe.
